## Percent effect of library compounds

Sequences of proteins named here, by UniProt entry; tags and fusion partners are left off. Residues count along the entry.
UniProt P9WPC5, whole entry: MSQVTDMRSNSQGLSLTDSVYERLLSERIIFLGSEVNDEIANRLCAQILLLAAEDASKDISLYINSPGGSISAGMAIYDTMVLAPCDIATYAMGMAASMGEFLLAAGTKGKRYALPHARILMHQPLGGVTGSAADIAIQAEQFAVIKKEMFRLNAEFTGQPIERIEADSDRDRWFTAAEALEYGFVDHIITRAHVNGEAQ
UniProt P9WPC3, whole entry partner: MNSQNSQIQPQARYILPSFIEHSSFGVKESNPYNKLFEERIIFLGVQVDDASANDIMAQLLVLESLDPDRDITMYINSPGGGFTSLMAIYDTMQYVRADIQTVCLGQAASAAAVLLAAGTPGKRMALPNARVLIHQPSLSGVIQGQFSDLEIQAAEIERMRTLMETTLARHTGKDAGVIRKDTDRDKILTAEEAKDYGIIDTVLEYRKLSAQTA
UniProt Q8IDJ8, 1-583: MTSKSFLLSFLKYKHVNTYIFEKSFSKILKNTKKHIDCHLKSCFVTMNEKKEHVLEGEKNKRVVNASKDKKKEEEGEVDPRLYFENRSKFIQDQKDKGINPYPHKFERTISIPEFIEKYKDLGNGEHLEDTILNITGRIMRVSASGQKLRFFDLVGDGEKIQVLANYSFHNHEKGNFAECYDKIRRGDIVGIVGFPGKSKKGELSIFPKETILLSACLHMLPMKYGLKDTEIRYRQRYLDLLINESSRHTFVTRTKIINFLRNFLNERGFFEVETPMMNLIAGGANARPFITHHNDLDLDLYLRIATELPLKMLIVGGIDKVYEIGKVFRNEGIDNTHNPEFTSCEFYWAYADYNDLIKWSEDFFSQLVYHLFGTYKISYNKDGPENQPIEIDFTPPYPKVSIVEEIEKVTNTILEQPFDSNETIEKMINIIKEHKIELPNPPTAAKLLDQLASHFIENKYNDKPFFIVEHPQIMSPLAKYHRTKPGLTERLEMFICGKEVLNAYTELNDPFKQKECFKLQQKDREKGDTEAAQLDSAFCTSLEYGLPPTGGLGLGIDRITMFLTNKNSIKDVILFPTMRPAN
UniProt P9WFT3, whole entry: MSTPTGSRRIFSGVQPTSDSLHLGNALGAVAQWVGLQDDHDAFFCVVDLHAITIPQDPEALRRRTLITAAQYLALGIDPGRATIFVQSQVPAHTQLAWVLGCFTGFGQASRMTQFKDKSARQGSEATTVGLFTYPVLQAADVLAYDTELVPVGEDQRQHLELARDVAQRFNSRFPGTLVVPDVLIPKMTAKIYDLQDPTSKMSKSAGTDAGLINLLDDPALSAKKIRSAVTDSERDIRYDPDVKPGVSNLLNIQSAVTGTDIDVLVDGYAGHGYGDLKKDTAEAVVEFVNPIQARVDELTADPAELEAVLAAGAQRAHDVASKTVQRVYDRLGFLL
UniProt A4I591, 1-473: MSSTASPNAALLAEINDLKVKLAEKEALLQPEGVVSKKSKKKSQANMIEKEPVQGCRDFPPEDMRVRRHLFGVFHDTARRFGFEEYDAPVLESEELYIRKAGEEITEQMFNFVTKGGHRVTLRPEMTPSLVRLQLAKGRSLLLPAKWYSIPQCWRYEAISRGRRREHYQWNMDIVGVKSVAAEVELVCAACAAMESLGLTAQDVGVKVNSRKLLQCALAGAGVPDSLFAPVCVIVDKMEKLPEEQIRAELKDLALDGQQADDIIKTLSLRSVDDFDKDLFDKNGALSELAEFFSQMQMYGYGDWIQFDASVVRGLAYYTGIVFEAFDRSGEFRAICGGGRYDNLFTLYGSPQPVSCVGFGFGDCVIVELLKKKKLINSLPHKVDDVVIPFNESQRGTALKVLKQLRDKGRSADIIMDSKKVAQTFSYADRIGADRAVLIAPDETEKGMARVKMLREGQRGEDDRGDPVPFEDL
UniProt Q4DA54, 1-478: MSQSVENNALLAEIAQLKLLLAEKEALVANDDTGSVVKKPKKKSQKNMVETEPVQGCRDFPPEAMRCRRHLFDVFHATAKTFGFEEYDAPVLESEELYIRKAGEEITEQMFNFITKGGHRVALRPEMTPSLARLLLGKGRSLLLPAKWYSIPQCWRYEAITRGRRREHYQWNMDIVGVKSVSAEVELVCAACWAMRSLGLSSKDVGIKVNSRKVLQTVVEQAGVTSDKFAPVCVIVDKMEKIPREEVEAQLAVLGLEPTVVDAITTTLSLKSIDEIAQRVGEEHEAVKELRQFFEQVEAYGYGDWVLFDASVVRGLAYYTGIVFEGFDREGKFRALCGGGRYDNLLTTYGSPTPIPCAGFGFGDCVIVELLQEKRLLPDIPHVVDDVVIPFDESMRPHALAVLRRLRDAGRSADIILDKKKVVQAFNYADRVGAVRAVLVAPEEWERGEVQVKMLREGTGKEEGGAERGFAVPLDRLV

Data taken from ChEMBL document CHEMBL3988442, “University of Dundee, Small-Polar-MMV Screening Library” (2021).

ClpP1P2: 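ClpP1P2, Mycobacterium tuberculosis (UniProt P9WPC5 and UniProt P9WPC3). Protease assay of ClpP1P2, read by the AMC dye that it sets free. Tested at 50 µM. Higher reads as stronger inhibition, judged from the few compounds that gave an IC50. Most other retested compounds had strongly negative values. Size under these conditions: about 69,000 compounds, about 10 of them at 50% or above in at least one test.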
PfKRS1: 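Lysine-tRNA ligase, Plasmodium falciparum 3D7 (UniProt Q8IDJ8). Enzyme assay of the cytosolic lysyl-tRNA synthetase in 384-well plates, read by luminescence. Concentration: 30 µM. Higher reads as stronger inhibition, judged from the few compounds that gave an IC50. Size under these conditions: about 69,000 compounds, about 49 of them at 50% or above in at least one test.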
MtTrpRS: 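Tryptophan-tRNA ligase, Mycobacterium tuberculosis (UniProt P9WFT3). Enzyme assay of tryptophanyl-tRNA synthetase; the read-out is not stated. Compounds at 10 µM. Direction is not recorded; retested compounds ran higher, which suggests that high means inhibition. Size under these conditions: about 65,000 compounds, about 64 of them at 50% or above in at least one test.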
LiHisRS: 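Enzyme assay of histidyl-tRNA synthetase; the read-out is not stated. Target: Histidine-tRNA ligase, Leishmania infantum (UniProt A4I591). Compounds at 30 µM. Higher reads as stronger inhibition (inferred: compounds with an IC50 in retests scored well above the rest). The assay is labelled LdHisRS but filed under L. infantum. About 69,000 compounds were tested under these conditions; 0.6% (about 410) showed 50% or more at least once.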
TcHisRS: 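Histidine-tRNA ligase, Trypanosoma cruzi CL Brener (UniProt Q4DA54). Enzyme assay of histidyl-tRNA synthetase; the read-out is not stated. Compounds at 30 µM. Direction is inferred from retests: higher values go with stronger inhibition. Of about 69,000 compounds tested this way, about 31 (0.045%) reached 50% or more in at least one test.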
Leishmania in macrophages: 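Cell assay of Leishmania donovani living inside macrophages; the read-out is not stated. Tested at 30 µM. The record gives no direction; compounds that gave an IC50 in retests scored well above the rest, so higher reads as stronger inhibition. Of about 69,000 compounds tested this way, about 1,000 (1.5%) reached 50% or more in at least one test.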

The filed quantity is “Percent Effect” (%).
The record does not define 0% and 100%; most values in the screen are far below 50% and negative numbers occur (in some assays of this library far below -100).
Compounds were drawn at random from those tested, without regard to their results.
Two or more numbers in one place are separate tests of the same structure; such repeats can differ widely.
A dash means the value is not listed here; it may have been measured.

| # | structure | ClpP1P2 | PfKRS1 | MtTrpRS | LiHisRS | TcHisRS | Leishmania in macrophages |
|---|---|---|---|---|---|---|---|
| 1 | `CCCS(=O)(=O)N1C[C@H]2C[C@H](C(=O)N3CCN(C)CC3)[C@@H](C1)O2` | 15.44 | 2.184 | -3.924 | 11.54 | 4.854 | - |
| 2 | `CCN(CC1CCCO1)C(=O)Nc1cc(C(N)=O)ccc1OC` (configuration not stated) | -8.293 | -0.2111 | -7.456 | 0 | 1.744 | 13.71 |
| 3 | `CCc1nnc(Nc2cc(C)nc(C3CN(C(C)=O)CCO3)c2)s1` (configuration not stated) | -7.938 | 1.401 | -6.596 | 2.817 | 3.03 | -43.02 |
| 4 | `CC(C)N(C)Cc1nnc2n1CCN(S(=O)(=O)C1CC1)CC2.O=C(O)C(F)(F)F` | - | - | - | - | - | 1.058 & 7.346 |
| 5 | `CNc1[nH]nc(N)c1NC(=O)c1ccccc1` | -3.919 | 7.129 | -0.2712 | 87.5 | 3.727 | -10.22 |
| 6 | `CC1(C)CCC(C(=O)N2CCCO2)c2ccccc21` (configuration not stated) | 11.96 | -0.5823 | 0.8474 | 8.772 | 4.202 | 9.47 |
| 7 | `CCC(=O)NC1CCCN(Cc2ccc(NC(C)=O)cc2)C1` (configuration not stated) | 14.47 | 4.006 | -11 | 23.08 | -1.149 | 16.74 |
| 8 | `CCN1CCC2(CC1)CC(NCc1cccs1)c1ccccc1O2.O=C(O)C(F)(F)F.O=C(O)C(F)(F)F` (configuration not stated) | - | - | - | - | - | 41.7 |
| 9 | `CC(C)C(CNCc1cccc2c1OCO2)N1CCOCC1` (configuration not stated) | -9.195 | 2.667 | -0.07003 | 15.79 | 5.263 | 18.13 |
| 10 | `CC(C)N1CCC(Cc2cncc(-c3cc(F)ccc3C(=O)O)n2)CC1` | -2.076 | 1.027 | - | 14.43 | 6.667 | 11.1 & 15.53 |
| 11 | `CCc1cc(NCc2cc3n(n2)CCCN(S(C)(=O)=O)C3)nc(C)n1` | 5.372 | 10.9 | -6.804 | 19.44 | 3.061 | 24.11 |
| 12 | `CNC(=O)[C@@H]1C[C@@H](N)CN1c1nnc(-c2ccccc2)s1` | 2.013 | -0.1394 | 0.1324 | 19.78 | 10.24 | 11.25 |
| 13 | `Cc1noc(C)c1C(=O)NCc1cccnc1N(C)C` | -19.43 | 1.054 | -4.576 | 16.51 | 7.059 | 25.57 |
| 14 | `Cn1ncnc1-c1ccnc(NCc2ccccn2)n1` | -10.85 | 1.56 | 5.062 | 8.889 | 7.143 | -7.511 |
| 15 | `CN(C)C(=O)C1CCc2nnc(CNC(=O)c3ccc(Cl)cc3Cl)n21` (configuration not stated) | -4.385 | -2.007 | -2.161 | 2.759 | 5.325 | 1.148 |
| 16 | `CCc1cc(N2CCCNCC2)n2nc(C)c(C)c2n1` | -15.98 | 4.405 | 0.3552 | 16.5 | 7.054 | 41.46 |
| 17 | `O=C(c1cnccn1)N1CCCC2(CCN(Cc3ccc(F)cc3)C2)C1` (configuration not stated) | -15.35 | 0.7524 | -7.153 | 10.53 | 5.464 | - |
| 18 | `CN(Cc1ccncc1)Cc1cnn(-c2ccc(F)cc2)c1` | -5.873 | 8.318 | 3.493 | 13.33 | 2.609 | 46.35 |
| 19 | `Cc1cc(NC(N)=O)ccc1C(=O)N(C)C` | -8.706 | 4.246 | -0.8396 | 5.714 | 4.082 | 4.396 |
| 20 | `COCCO[C@@H]1CCN(C(=O)c2ccc(C)o2)[C@@H]1Cc1cnn(C)c1` | 6.212 | 12.7 | 0 | 17.31 | 0.5348 | 13.47 |
| 21 | `NC(=O)c1cc2c(nc1Oc1ccccc1CN1CCCCC1)CCC2` | -3.058 | 7.295 | 3.173 | -6.557 | 3.004 | 10.01 |
| 22 | `Cc1noc(C)c1CN1CCc2ncnc(-c3ccccc3)c2CC1.O=C(O)C(F)(F)F` | - | - | - | - | - | 22.5 |
| 23 | `COCCN1CCOCC12CCN(C(=O)c1ccncc1)CC2.O=C(O)C(F)(F)F` | - | - | - | - | - | 7.201 |
| 24 | `O=C(O)C(F)(F)F.[H][C@@]12CN(Cc3ccc(C)o3)CCC[C@]1(C(=O)O)CN(c1ncccn1)C2` | - | - | - | - | - | -7.747 |
| 25 | `O=C(NCc1ccon1)N1CCC(n2ccc(C(F)(F)F)n2)CC1` | -13.63 | -0.1901 | 1.542 | 17.28 | -0.6135 | 14.53 |
| 26 | `CN(C)C(=O)CS(=O)(=O)Cc1cc(Cl)c2c(c1)OCCO2` | -32.43 | -0.9927 | -4.916 | 8.036 | 4.624 | -19.82 |
| 27 | `COCCN1C(=O)CC[C@@H]2[C@@H]1CCN2Cc1c(C)noc1C` | 5.654 | 2.703 | - | 9.434 | 7.778 | - |
| 28 | `N#Cc1cc(F)c(NCCc2ccc(S(N)(=O)=O)cc2)c(F)c1` | -1.948 | 5.499 | 4.004 | 17.95 | 3.933 | 2.233 |
| 29 | `[H][C@]12CCC[C@@]1(COC)CN(C(=O)CCOC)C2` | - | - | - | - | - | 9.035 |
| 30 | `c1nc(N2CCOC(Cn3cncn3)C2)c2sccc2n1` (configuration not stated) | -2.408 | -2.8 | -1.097 | 5.882 | 7.623 | 23.8 |
| 31 | `CCNC(=O)C1CCCN(c2ccc3ccc(F)cc3n2)C1` (configuration not stated) | -145.4 | -1.972 | -4.176 | -9.524 | -5.941 | 4.617 |
| 32 | `CC(C)Nc1cc(N2CCC(n3cc(CCO)nn3)CC2)ncn1` | 4.323 | -4.576 | 1.29 | -1.064 | 5.051 | -5.202 |
| 33 | `CCC(C(=O)N(C)C)n1ccc2ncccc2c1=O` (configuration not stated) | -8.744 | 5.724 | 4.719 | 18.99 | 1.293 | -4.917 |
| 34 | `c1ccc(NC[C@@H]2CCC[C@@H]3CN(c4ncccn4)C[C@@H]32)nc1` | 6.423 | 4.849 | -7.931 | 8 | 0 | - |
| 35 | `COCCN(C)C[C@H]1C[C@H](CO)CN(C(=O)c2ccn(C)c(=O)c2)C1` | -1.13 | 1.338 | 4.516 | 18.09 | 7.071 | 39 |
| 36 | `Cc1ccccc1OCC(=O)N1CCOC2(CNCCOC2)C1` (configuration not stated) | -5.254 | -1.164 | 2.826 | 20 | 3.518 | 12.08 |
| 37 | `N#Cc1cccc(N2CCCC3(CN(C(=O)[C@H]4CCCO4)CCO3)C2)c1` (some centres not stated) | -2.45 | 1.343 | -3.738 | 11.11 | 8.021 | 14.3 |
| 38 | `O=C(Cc1cccs1)N1CCC2(CC1)COCCN2CC1CC1.O=C(O)C(F)(F)F` | - | - | - | - | - | 7.536 |
| 39 | `CC(=O)c1cccc(NS(=O)(=O)c2cc(C)c(C(=O)O)s2)c1` | 3.806 | 3.726 | -0.7916 | 16.39 | 4.651 | -3.515 |
| 40 | `O=C(O)C(F)(F)F.[H][C@@]12CCN(Cc3ccc(C)o3)C[C@@]1([H])O[C@@H](c1nnc(C)[nH]1)C2` | - | - | - | - | - | 24.59 |
| 41 | `CC(C)C(C(=O)NCC1CC1)n1cnc2cc(F)c(F)cc21` (configuration not stated) | -8.614 | 4.643 | -2.77 | 8.219 | -1.053 | 11.36 |
| 42 | `Cc1ccc(C(=O)N2CCCN(Cc3cccs3)CC2)n1C` | -48.11 | 2.108 | -6.968 | 9.174 | 5.882 | 19.38 |
| 43 | `[H][C@@]12CCN(C[C@@H]1c1cc(-c3ccccc3)nn1C)[C@@H](CNS(C)(=O)=O)C2` | - | - | - | - | - | 24.48 |
| 44 | `c1ccc(CO[C@@H]2CN(Cc3cccnc3)[C@@H]3COC[C@@H]32)nc1` | -2.772 | 2.008 | - | 15.45 | 8.466 | - |
| 45 | `OCCN1CCC(CNCc2ccc(Br)cc2)CC1` | -2.665 | 1.683 | -2.428 | 17.74 | 6.186 | 77.88 |
| 46 | `CCOCCCNC(=O)c1nc2c(s1)CCCN2c1ccc(C)nn1.O=C(O)C(F)(F)F` | - | - | - | - | - | 20.55 |
| 47 | `O=C(N[C@@H]1C[C@H]2CC[C@@H]1C2)C1(Oc2ccc(Cl)cc2)CCNCC1` | -3.782 | -0.02219 | 0 | 15.49 | -0.5525 | - |

For reference, 5 entries once more:

structure,ClpP1P2,PfKRS1,MtTrpRS,LiHisRS,TcHisRS,Leishmania in macrophages
c1nc(N2CCOC(Cn3cncn3)C2)c2sccc2n1 (configuration not stated),-2.408,-2.8,-1.097,5.882,7.623,23.8
O=C(Cc1cccs1)N1CCC2(CC1)COCCN2CC1CC1.O=C(O)C(F)(F)F,-,-,-,-,-,7.536
COCCO[C@@H]1CCN(C(=O)c2ccc(C)o2)[C@@H]1Cc1cnn(C)c1,6.212,12.7,0,17.31,0.5348,13.47
CN(Cc1ccncc1)Cc1cnn(-c2ccc(F)cc2)c1,-5.873,8.318,3.493,13.33,2.609,46.35
COCCN(C)C[C@H]1C[C@H](CO)CN(C(=O)c2ccn(C)c(=O)c2)C1,-1.13,1.338,4.516,18.09,7.071,39